Results from publication PMC6953139.

Protein sequences, listed by entry. Tags and fused reporters are not part of them.
UniProt Q9UQQ2: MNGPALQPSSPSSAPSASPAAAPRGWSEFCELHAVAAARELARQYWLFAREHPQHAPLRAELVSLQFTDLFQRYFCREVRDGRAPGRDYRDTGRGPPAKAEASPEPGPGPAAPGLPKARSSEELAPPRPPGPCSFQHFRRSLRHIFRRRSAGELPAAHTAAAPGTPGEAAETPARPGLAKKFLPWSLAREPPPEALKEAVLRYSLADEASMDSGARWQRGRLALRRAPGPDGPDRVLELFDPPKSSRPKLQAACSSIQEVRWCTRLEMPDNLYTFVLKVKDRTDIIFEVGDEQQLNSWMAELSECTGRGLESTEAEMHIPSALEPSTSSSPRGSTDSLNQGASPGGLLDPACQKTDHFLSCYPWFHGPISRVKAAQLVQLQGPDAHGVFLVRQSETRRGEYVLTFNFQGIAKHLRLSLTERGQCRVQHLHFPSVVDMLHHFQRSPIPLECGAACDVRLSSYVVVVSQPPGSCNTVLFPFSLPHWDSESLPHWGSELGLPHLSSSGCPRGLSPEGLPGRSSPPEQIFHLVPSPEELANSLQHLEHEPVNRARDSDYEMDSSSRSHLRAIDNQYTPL
UniProt P62258: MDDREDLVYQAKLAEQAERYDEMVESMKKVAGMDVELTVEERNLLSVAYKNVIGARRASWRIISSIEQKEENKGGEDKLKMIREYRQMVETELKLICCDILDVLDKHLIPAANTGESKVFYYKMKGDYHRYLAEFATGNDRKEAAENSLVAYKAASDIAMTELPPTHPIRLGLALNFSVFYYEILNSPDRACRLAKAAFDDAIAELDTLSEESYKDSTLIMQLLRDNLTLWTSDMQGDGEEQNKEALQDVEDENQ

Biological target: LNK-flag (adaptor protein LNK, SH2B3), expressed in 293FT cells (UniProt Q9UQQ2)
Assay: affinity purification with mass spectrometry; LNK-flag from transfected 293FT lysate held on FLAG beads, 4 °C overnight, IP lysis buffer (150 mM NaCl; 1% NP-40), eluted with FLAG peptide; SDS-PAGE, silver staining, unique bands analysed by LC-MS; empty pMSCV vector as control

binding: binds
Molecule: 14-3-3ε (YWHAE), endogenous in 293FT cells (from UniProt P62258 1-255)

binding: binds
B1: 14-3-3γ (YWHAG), endogenous in 293FT cells (protein, UniProt P61981 1-247)
chain: MVDREQLVQKARLAEQAERYDDMAAAMKNVTELNEPLSNEERNLLSVAYKNVVGARRSSWRVISSIEQKTSADGNEKKIEMVRAYREKIEKELEAVCQDVLSLLDNYLIKNCSETQYESKVFYLKMKGDYYRYLAEVATGEKRATVVESSEKAYSEAHEISKEHMQPTHPIRLGLALNYSVFYYEIQNAPEQACHLAKTAFDDAIAELDTLNEDSYKDSTLIMQLLRDNLTLWTSDQQDDDGGEGNN

Results are given in words; binding and its absence hold for the method and conditions named. In cells and extracts the contact can be indirect. Here binding means that the protein was enriched with, or labelled near, the bait; the list need not be complete. One block for each molecule: values may come before it.
